This is one part of the list.

Amino acid sequences for entries named in this document (tags omitted).
UniProt Q0JBA9, entry or part of it: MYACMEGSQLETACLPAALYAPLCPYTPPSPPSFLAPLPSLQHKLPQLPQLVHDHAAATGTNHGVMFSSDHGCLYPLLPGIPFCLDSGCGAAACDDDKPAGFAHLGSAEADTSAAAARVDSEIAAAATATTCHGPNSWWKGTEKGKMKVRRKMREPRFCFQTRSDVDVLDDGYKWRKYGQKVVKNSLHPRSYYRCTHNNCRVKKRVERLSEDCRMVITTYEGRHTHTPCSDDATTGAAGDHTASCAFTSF

The target of this assay is OsWRKY34 (Oryza sativa, UniProt Q0JBA9 1-250). The assay can be described thus: protein-binding microarray (RPBM); PBS, 2% BSA, 51.3 ng/ul salmon testes DNA, 50 uM zinc acetate, 200 nM TF, 25 C, 1 h; high values mean tight binding. As to conditions: protein: recombinant; tags: N-terminal polyhistidine and DsRed monomer fusion (pET32a); label: CyDye5-dUTP incorporated in the synthesized complementary strand; 3' TTTTT single-stranded linker to array surface; dsDNA, one strand shown. The procedure, abridged: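 Per-feature fluorescence intensity (arbitrary units), read on an Axon 4000B scanner, is the binding signal. Transcription factors carrying an N-terminal polyhistidine tag and DsRed fusion were expressed in E. coli BL21-CodonPlus and purified on Ni–NTA. A custom Agilent array, made double-stranded by primer extension with Cy5-dUTP and blocked with 2% BSA, was incubated with 200 nM protein in PBS, 2% BSA, salmon testes DNA and 50 µM zinc acetate at 25 °C for 1 h and then washed.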
As to “TGGTTCTTCAAGATCTGTTGCTCCTATCAAGGCTGGATTCCGGAGTCACCTAGTGCAG”, the binding signal was 8920 fluorescence intensity (a.u.).
On to “CAACAGTTAGCATTATATATTCGGTTCTACTAACTTGTCTCGGAGTCACCTAGTGCAG”, for which the binding signal is 9060 fluorescence intensity (a.u.).
As for “CCTTCCCGCGCCGCCCACCCGGCCACCCTCCGCTCCATCCCGGAGTCACCTAGTGCAG”, the figure is 9680 fluorescence intensity (a.u.).
The result for “TTTTTTTCAGGGAAAAAATGCTGTGACCATTTGTTCGTTTCGGAGTCACCTAGTGCAG” reads 8100 fluorescence intensity (a.u.); that for “ATTCTATTATCCCATCCGTCTCAAATACTACTTGATGTATCGGAGTCACCTAGTGCAG”, 10100 fluorescence intensity (a.u.); that for “TCTCGTTTCCAATGTCCTTTTTTTCAACTACATTTCCAATCGGAGTCACCTAGTGCAG”, 10600 fluorescence intensity (a.u.).
The result for “CGAATCACAAAGCGAGGCCCACTTCCACCTTTTCCTATTTCGGAGTCACCTAGTGCAG” reads 9290 fluorescence intensity (a.u.).
On to “ATGATGTAGTGGGCTTTTTAATGGTGTTTTTTTGCCTATTCGGAGTCACCTAGTGCAG”, for which the binding signal is 10200 fluorescence intensity (a.u.).
The result for “TGCACATTTTTCTTCCTTTATTTTCGTGTGGAGTATATTTCGGAGTCACCTAGTGCAG” reads 10700 fluorescence intensity (a.u.); that for “TCATTGCCATCACATTGTAGATCTTCAATTGCGTACTTGTCGGAGTCACCTAGTGCAG”, 8470 fluorescence intensity (a.u.); that for “TGCACATCACCGATCACATTTGTTTTTTAAAGACGTCCCTCGGAGTCACCTAGTGCAG”, 8810 fluorescence intensity (a.u.).
The result for “TGGCTACACAGGCTACTCATCCTTTTTCAGTTTTTCAAACCGGAGTCACCTAGTGCAG” reads 8390 fluorescence intensity (a.u.).
The result for “TTCTCACTGGCCCAGCACAAGTGGGTTTAATTTGTTGTCCCGGAGTCACCTAGTGCAG” reads 8740 fluorescence intensity (a.u.).
Turning to “AGTATTGCAAGTGTAGTTCTACCTCTATCGTGACCTCAATCGGAGTCACCTAGTGCAG”, the binding signal was 9970 fluorescence intensity (a.u.).
The result for “TAGCTCGTCTCGTCTCTTCTCTACCCCAATCCCGTTCTCTCGGAGTCACCTAGTGCAG” reads 11000 fluorescence intensity (a.u.); that for “ACTCTCTCTCTCTCTCTCTCTCTCTCTCTCTCTCCAATCTCGGAGTCACCTAGTGCAG”, 9700 fluorescence intensity (a.u.).
As for “TTTTCAAAATCGCGCATCCACCGCCGCTCGACCAAAAAAACGGAGTCACCTAGTGCAG”, the figure is 8870 fluorescence intensity (a.u.); as for “ACTACCTCAACCTGCAATCCCACTGCAACATCTACCTGCTCGGAGTCACCTAGTGCAG”, 8260 fluorescence intensity (a.u.).
Consider “CCCGATCTCCTCTCGCCGTCGGCGTCGCCCGGGTCGCCGCCGGAGTCACCTAGTGCAG”, for which the binding signal was 10000 fluorescence intensity (a.u.).
The result for “TCTGTCGTCGCCGCGCCGGCCCTCACTGGAGATCGCCTCTCGGAGTCACCTAGTGCAG” reads 9280 fluorescence intensity (a.u.); that for “ATCACTCTTCTTGGTCGTTCTTGCCATTCTTGTACCGCGACGGAGTCACCTAGTGCAG”, 18200 fluorescence intensity (a.u.).
As for “TGTGTACTATTTTTTCTACCGTTGGATACAAATATGAGGGCGGAGTCACCTAGTGCAG”, the binding signal was 8510 fluorescence intensity (a.u.).
As for “TTCTTTCTTCTCCTCCTGGATTTCTGCCGGCTCGAGATCTCGGAGTCACCTAGTGCAG”, the figure is 11400 fluorescence intensity (a.u.); as for “TTAGCTAGTTTGCCCCAACACACCACACACTACACATGCACGGAGTCACCTAGTGCAG”, 8460 fluorescence intensity (a.u.); as for “TCTCTTTTCTTTTCTTTCTTTTTATTTTGTTGTTCCTTTACGGAGTCACCTAGTGCAG”, 12600 fluorescence intensity (a.u.).
For the sequence “GGCCGTCCATCGCGCCACATCCAACGGCCACCATGCGACGCGGAGTCACCTAGTGCAG”, the binding signal was 9510 fluorescence intensity (a.u.).
On to “ATACTATAACATATCACTTCCCGTTCTAGATTTACCTTTTCGGAGTCACCTAGTGCAG”, for which the binding signal is 8040 fluorescence intensity (a.u.).
With “TTGCTTGCCGTTGCTGGCTGTGTCAGTGTGCCACCCACTCCGGAGTCACCTAGTGCAG”, the binding signal is 9100 fluorescence intensity (a.u.).
As for “TTACTATATAGCCGTGCCTCGTTTTGTTAATAAAAAGCTTCGGAGTCACCTAGTGCAG”, the figure is 8450 fluorescence intensity (a.u.); as for “GCATTTCCAGGCCCACGGAAGCCACGCTTCTTCTCCAGCGCGGAGTCACCTAGTGCAG”, 8060 fluorescence intensity (a.u.).
The result for “GGCGTGATGTTTTCTGCTGAAGTAATTTTCTAGTTTCTCACGGAGTCACCTAGTGCAG” reads 9090 fluorescence intensity (a.u.); that for “ATTTTTTAGCCAATTTACACCGTAATCACTGAATGCTAATCGGAGTCACCTAGTGCAG”, 8510 fluorescence intensity (a.u.); that for “CCCATGCCACTGCAACCTAGACCTCTCTACTAGCTAGCTTCGGAGTCACCTAGTGCAG”, 9040 fluorescence intensity (a.u.).
As for “ATTCTTTTTTCTCGGAGAGACGGCCCAACCCAACCGAATTCGGAGTCACCTAGTGCAG”, the figure is 9880 fluorescence intensity (a.u.); as for “GTCGCTTGTCGTTGTTGCCCTGAACTGTTGGTGCTGGTTCCGGAGTCACCTAGTGCAG”, 9320 fluorescence intensity (a.u.); as for “TCCTGTGTTTTTCCTGTGGTTCAATCAAACGGTCATTCCTCGGAGTCACCTAGTGCAG”, 9910 fluorescence intensity (a.u.).
With “AGTTGTTGTTTCATAGTTGAGTTTTGGTCGTGTCAACATTCGGAGTCACCTAGTGCAG”, the binding signal is 12900 fluorescence intensity (a.u.).
The result for “CTTTTAATTTCCCTCGTGTCATGTATAGTAGTACTCCACCCGGAGTCACCTAGTGCAG” reads 8900 fluorescence intensity (a.u.).
As for “CAAGCATTTAATCTTCTTTTGTGTGTGTTGTTTTTTTTCTCGGAGTCACCTAGTGCAG”, the figure is 9250 fluorescence intensity (a.u.).
The result for “TGAATAGTACTTTATGTGTATGTGTGACGTGACTATTTTCCGGAGTCACCTAGTGCAG” reads 8990 fluorescence intensity (a.u.).
On to “TTCATCATCCTCCATTTCTACACCGAGAATCGAACCACGACGGAGTCACCTAGTGCAG”, for which the binding signal is 9200 fluorescence intensity (a.u.).
In the case of “TCTCGTCCACAGTTTCACGTCATTGGATACATGTTTCTATCGGAGTCACCTAGTGCAG”, the binding signal is 10000 fluorescence intensity (a.u.).
